40 targets from the supplement of paper PMC10849652 can be followed below.

Chains of the proteins cited; added tags and fusions are not shown. Lines headed by an entry give the natural chain unless they say otherwise; changes in a name come on top.
UniProt O60739, whole entry, looked up: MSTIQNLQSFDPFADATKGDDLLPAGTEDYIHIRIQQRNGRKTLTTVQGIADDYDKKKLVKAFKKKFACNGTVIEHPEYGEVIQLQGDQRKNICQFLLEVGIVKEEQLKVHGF
UniProt O60869: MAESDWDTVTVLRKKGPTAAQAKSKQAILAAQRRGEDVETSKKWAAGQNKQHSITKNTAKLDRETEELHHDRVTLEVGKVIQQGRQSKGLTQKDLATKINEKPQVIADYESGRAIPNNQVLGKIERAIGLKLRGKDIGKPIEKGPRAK
UniProt Q16254: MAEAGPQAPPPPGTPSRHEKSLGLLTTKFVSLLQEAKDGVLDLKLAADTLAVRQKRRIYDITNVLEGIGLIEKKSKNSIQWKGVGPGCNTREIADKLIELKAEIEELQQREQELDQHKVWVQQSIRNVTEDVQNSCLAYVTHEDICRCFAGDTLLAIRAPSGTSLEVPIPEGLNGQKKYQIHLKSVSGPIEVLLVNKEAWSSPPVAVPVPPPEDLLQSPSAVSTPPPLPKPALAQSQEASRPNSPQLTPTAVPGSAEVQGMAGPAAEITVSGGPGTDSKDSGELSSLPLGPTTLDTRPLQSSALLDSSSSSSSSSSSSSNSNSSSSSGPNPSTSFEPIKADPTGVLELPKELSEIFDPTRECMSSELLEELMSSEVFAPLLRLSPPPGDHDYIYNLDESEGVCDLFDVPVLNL
UniProt Q9H410: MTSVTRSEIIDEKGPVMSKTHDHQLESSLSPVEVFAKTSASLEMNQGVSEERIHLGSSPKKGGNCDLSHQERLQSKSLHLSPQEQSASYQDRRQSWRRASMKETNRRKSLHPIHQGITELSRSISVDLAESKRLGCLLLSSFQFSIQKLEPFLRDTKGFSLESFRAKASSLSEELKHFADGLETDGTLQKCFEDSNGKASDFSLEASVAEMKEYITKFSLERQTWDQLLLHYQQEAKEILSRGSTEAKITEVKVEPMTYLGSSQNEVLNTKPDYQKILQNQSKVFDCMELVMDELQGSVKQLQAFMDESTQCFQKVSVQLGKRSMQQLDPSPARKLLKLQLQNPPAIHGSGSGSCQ
UniProt Q7RTS9: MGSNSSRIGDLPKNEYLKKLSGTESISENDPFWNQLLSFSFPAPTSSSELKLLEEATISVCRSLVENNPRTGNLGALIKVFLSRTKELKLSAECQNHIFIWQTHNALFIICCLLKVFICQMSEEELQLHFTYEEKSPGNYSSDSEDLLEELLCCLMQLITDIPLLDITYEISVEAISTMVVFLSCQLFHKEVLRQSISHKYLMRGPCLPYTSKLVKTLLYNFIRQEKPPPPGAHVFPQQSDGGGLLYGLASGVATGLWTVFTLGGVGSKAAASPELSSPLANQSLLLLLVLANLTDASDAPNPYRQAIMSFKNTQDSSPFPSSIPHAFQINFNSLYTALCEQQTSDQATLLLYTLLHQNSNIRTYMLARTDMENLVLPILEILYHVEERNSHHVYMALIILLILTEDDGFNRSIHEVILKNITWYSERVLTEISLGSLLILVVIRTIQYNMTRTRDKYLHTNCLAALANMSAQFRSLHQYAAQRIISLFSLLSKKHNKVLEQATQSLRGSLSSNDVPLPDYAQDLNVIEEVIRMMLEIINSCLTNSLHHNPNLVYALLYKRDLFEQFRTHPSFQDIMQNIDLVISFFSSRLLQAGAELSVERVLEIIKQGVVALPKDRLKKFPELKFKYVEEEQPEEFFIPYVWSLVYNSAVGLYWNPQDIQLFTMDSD
UniProt Q9BY44: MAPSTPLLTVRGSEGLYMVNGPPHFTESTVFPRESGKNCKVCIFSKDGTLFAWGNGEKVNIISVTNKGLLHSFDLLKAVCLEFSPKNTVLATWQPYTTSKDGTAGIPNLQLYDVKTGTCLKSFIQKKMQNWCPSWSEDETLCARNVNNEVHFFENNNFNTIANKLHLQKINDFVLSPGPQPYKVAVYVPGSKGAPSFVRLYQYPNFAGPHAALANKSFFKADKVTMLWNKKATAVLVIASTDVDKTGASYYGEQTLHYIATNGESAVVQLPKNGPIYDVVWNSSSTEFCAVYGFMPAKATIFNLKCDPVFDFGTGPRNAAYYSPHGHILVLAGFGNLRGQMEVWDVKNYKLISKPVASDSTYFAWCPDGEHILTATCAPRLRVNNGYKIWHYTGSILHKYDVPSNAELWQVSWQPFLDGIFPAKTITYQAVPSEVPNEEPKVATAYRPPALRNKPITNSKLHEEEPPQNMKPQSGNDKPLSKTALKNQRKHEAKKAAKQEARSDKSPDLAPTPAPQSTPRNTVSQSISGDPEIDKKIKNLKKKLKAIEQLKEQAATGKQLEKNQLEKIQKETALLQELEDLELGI
UniProt Q92611: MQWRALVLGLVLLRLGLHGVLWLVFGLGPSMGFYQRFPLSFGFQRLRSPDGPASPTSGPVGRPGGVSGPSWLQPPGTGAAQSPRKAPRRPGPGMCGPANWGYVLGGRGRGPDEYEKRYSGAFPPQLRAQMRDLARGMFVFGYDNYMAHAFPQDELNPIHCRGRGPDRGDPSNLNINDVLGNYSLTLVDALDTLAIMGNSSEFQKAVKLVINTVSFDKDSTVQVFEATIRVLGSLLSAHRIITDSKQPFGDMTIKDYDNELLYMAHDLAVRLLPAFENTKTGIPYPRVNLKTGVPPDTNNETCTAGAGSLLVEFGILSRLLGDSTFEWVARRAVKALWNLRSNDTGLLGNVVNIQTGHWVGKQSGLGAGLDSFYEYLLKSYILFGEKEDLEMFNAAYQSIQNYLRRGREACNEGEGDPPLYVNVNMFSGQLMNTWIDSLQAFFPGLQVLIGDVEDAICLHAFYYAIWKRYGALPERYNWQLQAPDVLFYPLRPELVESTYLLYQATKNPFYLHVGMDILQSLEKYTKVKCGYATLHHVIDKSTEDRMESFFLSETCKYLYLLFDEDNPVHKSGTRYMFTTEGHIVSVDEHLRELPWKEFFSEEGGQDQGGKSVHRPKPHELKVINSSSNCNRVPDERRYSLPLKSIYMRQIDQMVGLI
UniProt Q9BVC3, whole entry, looked up: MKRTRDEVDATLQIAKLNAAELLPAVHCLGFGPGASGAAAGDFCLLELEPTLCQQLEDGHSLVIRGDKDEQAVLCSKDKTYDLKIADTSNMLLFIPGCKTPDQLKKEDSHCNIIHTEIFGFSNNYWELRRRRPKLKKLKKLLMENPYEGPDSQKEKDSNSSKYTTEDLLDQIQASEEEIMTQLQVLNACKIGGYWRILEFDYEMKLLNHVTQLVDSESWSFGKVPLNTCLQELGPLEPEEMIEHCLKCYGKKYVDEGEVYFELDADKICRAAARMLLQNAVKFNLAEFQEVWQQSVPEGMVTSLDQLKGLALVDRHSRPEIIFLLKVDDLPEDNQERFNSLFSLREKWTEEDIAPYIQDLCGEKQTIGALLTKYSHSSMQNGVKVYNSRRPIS
UniProt Q8NDI1: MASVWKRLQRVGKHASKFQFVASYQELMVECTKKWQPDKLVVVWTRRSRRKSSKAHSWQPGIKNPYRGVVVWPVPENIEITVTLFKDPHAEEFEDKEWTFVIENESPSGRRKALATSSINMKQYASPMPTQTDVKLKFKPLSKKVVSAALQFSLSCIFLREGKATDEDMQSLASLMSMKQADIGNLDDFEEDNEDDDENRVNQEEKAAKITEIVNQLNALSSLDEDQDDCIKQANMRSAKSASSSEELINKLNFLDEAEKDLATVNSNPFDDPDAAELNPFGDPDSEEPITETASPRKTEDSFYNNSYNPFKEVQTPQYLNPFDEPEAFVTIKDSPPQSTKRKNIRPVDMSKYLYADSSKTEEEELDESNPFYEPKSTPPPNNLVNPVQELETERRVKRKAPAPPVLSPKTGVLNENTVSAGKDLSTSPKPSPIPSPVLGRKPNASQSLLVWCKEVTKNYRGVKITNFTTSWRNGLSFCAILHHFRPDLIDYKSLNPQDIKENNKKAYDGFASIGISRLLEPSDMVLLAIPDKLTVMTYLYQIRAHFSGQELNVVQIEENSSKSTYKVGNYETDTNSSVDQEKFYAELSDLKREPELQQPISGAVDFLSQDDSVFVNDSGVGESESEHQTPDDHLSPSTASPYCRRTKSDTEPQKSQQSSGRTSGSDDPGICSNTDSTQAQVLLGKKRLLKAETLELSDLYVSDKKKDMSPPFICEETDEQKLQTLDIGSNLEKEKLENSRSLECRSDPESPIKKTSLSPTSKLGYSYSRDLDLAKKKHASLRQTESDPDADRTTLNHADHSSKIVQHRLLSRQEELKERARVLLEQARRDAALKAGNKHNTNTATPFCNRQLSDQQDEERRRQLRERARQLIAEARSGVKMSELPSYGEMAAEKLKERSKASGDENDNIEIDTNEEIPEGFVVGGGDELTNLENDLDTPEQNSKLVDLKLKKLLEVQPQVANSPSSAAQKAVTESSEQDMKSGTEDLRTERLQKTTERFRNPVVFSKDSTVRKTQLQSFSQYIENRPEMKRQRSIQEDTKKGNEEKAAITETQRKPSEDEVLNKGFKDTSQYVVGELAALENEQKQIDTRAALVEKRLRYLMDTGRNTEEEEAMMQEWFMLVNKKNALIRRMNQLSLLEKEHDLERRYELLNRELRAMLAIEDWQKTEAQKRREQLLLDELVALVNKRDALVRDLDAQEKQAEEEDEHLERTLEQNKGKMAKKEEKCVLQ
UniProt Q8WWZ3: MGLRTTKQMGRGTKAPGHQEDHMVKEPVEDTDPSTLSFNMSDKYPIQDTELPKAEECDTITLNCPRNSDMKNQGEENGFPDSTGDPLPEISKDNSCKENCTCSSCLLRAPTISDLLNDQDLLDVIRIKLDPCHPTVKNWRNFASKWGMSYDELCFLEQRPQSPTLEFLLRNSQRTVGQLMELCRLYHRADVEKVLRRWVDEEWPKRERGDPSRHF
UniProt Q96FJ2, whole entry, looked up: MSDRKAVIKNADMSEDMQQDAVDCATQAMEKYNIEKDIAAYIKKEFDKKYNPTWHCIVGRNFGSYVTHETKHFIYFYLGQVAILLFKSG
UniProt Q9BTV6: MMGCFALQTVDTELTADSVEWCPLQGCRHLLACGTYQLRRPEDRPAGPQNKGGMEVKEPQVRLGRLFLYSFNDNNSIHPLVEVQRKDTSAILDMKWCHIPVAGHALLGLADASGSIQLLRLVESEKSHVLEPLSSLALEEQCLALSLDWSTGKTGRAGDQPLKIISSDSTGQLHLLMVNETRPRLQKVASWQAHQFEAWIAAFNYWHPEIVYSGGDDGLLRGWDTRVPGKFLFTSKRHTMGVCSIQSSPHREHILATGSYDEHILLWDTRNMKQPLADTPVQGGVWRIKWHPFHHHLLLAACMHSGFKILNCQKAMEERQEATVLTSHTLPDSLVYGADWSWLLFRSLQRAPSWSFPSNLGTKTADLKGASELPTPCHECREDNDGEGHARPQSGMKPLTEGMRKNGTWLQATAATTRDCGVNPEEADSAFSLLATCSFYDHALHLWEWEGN
UniProt Q9NP97, whole entry, looked up: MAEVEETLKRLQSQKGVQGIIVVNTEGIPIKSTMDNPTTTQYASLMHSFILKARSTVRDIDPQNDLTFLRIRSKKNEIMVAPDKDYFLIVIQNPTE
UniProt P24534: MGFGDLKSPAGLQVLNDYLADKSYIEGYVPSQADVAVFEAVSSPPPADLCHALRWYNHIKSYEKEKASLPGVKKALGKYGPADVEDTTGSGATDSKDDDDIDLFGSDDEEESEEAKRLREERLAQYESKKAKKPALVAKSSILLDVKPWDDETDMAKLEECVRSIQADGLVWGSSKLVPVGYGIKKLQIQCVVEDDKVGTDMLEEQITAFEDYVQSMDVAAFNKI
UniProt P33316: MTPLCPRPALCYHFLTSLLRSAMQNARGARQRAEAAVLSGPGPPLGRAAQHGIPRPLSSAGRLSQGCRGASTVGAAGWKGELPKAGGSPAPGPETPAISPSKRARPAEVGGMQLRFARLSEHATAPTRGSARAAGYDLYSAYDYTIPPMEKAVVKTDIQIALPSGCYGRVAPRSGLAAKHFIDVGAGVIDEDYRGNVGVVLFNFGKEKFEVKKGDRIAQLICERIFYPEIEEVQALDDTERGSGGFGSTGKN
UniProt Q7L8W6: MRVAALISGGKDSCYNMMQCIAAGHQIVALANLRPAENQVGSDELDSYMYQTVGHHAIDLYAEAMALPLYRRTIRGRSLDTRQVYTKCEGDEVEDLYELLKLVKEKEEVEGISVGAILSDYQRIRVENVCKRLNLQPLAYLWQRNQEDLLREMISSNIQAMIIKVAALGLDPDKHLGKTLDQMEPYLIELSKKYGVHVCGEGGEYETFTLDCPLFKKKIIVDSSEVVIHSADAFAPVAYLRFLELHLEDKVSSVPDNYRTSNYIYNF
UniProt O75521: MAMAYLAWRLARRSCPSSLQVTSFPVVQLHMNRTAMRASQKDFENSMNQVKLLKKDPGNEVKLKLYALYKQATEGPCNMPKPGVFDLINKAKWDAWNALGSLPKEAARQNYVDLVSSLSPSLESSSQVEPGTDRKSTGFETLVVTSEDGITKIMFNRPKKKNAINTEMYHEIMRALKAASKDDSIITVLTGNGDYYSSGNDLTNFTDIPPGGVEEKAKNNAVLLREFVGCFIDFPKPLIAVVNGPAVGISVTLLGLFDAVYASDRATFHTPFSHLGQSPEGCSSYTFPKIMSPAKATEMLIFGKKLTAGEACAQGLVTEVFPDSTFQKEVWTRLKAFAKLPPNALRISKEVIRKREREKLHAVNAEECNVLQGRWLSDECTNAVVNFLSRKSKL

This is one part of the list.

Compound in one assay: C1=CC=C(C=C1)C2=NC(=C(N2)C3=CC=NC=C3)C4=CC(=C(C=C4)Cl)O
Briefly: log2 fold change, soluble protein after heating vs DMSO (PISA); higher = thermal stabilisation; K562 lysate, 10 uM; active = over 0.2 and 3.5 SD of the protein, either way, in both replicates (recomputed). An outline of the steps:
(§1)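 The values are log-two fold changes in thermal stability compared with solvent controls and come from duplicates. They were obtained by TMTpro 16plex LC-MS/MS, with channel sums equalised, on the supernatant after 21,000xg for 90 min. That supernatant came from crude K562 extract at 1 mg/mL protein treated with 10 μM compound for 30 min, heated for 3 min across 48°C-58°C, pooled and brought to 0.5% NP-40 at 4°C.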
As to EIF1B (UniProt O60739), the log2 fold change was inactive: 0.052.

Take EDF1 (UniProt O60869): the log2 fold change is inactive: 0.012.

On to DRAP1 isoform 2 (UniProt Q14919), for which the log2 fold change is inactive: -0.015.

As for E2F4 (UniProt Q16254), the log2 fold change is inactive: 0.011.

Take EFHD2 (UniProt Q96C19): the log2 fold change was inactive: 0.009.

As for DPP8 (UniProt Q6V1X1), the log2 fold change is inactive: 0.031.

In the case of DSN1 (UniProt Q9H410), the log2 fold change is inactive: -0.025.

DUS4L (UniProt O95620): the log2 fold change was inactive: 0.055.

Take EEF1E1 (UniProt O43324): the log2 fold change is inactive: -0.014.

Turning to DYM (UniProt Q7RTS9), the log2 fold change was inactive: -0.017.

EFTUD2 (UniProt Q15029): the log2 fold change is inactive: 0.007.

With EIF2A (UniProt Q9BY44), the log2 fold change was inactive: -0.004.

EEF1AKMT2, A0A494BZY7: the log2 fold change is inactive: -0.024.

Consider DPY19L1, A0A1B0GW05, for which the log2 fold change was inactive: -0.017.

For the target EDEM1 (UniProt Q92611), the log2 fold change is inactive: -0.018.

Take DPYSL2 (UniProt Q16555): the log2 fold change is inactive: 0.006.

Turning to DUS3L (UniProt Q96G46), the log2 fold change is inactive: 0.032.

As for DSCC1 (UniProt Q9BVC3), the log2 fold change was inactive: 0.054.

Regarding EHBP1 isoform 2 (UniProt Q8NDI1), the log2 fold change is inactive: 0.062.

For EDARADD (UniProt Q8WWZ3), the log2 fold change was inactive: 0.049.

In the case of EFHD1 (UniProt Q9BUP0), the log2 fold change is inactive: 0.066.

Consider DTYMK (UniProt P23919), for which the log2 fold change was inactive: -0.016.

Take DYNLL2 (UniProt Q96FJ2): the log2 fold change was inactive: 0.027.

DPH7 (UniProt Q9BTV6): the log2 fold change is inactive: 0.01.

As for ECH1 (UniProt Q13011), the log2 fold change is active: 0.499.

Consider DUSP23 (UniProt Q9BVJ7), for which the log2 fold change was inactive: 0.033.

As to DYNLRB1 (UniProt Q9NP97), the log2 fold change was inactive: -0.041.

Consider DPP9 isoform 2 (UniProt Q86TI2), for which the log2 fold change was inactive: 0.004.

As for DPP7 (UniProt Q9UHL4), the log2 fold change is inactive: 0.002.

For the target EEF1D isoform 2 (UniProt P29692), the log2 fold change is inactive: -0.019.

As for EEF1B2 (UniProt P24534), the log2 fold change was inactive: 0.013.

On to DUT (UniProt P33316), for which the log2 fold change was inactive: -0.01.

With EED, A0A5F9ZI63, the log2 fold change is inactive: -0.012.

With DPH6 (UniProt Q7L8W6), the log2 fold change was inactive: -0.009.

For the target ECT2 (UniProt Q9H8V3), the log2 fold change was inactive: 0.015.

As for DUSP3 (UniProt P51452), the log2 fold change is inactive: 0.013.

Turning to DYNC1H1 (UniProt Q14204), the log2 fold change was inactive: -0.004.

As to EIF1AD (UniProt Q8N9N8), the log2 fold change was inactive: 0.02.

For the target ECI2 (UniProt O75521), the log2 fold change is inactive: -0.019.

As to EBNA1BP2 (UniProt Q99848), the log2 fold change was inactive: -0.005.

Compound in another assay: C1=CC=C2C(=C1)C3=NNC4=CC=CC(=C43)C2=O
The description is as above. An outline of the steps:
as §1
In the case of EIF1B (UniProt O60739), the log2 fold change was inactive: 0.16.

EDF1 (UniProt O60869): the log2 fold change is inactive: 0.021.

Regarding DRAP1 isoform 2 (UniProt Q14919), the log2 fold change is inactive: -0.041.

As to E2F4 (UniProt Q16254), the log2 fold change is inactive: -0.01.

Take EFHD2 (UniProt Q96C19): the log2 fold change is inactive: 0.028.

With DPP8 (UniProt Q6V1X1), the log2 fold change was inactive: 0.237.

On to DSN1 (UniProt Q9H410), for which the log2 fold change is inactive: 0.032.

On to DUS4L (UniProt O95620), for which the log2 fold change is inactive: 0.062.

As to EEF1E1 (UniProt O43324), the log2 fold change was inactive: -0.008.

In the case of DYM (UniProt Q7RTS9), the log2 fold change was inactive: -0.062.

As for EFTUD2 (UniProt Q15029), the log2 fold change is inactive: 0.012.

Turning to EIF2A (UniProt Q9BY44), the log2 fold change is inactive: 0.024.

EEF1AKMT2, A0A494BZY7: the log2 fold change was inactive: 0.012.

Take DPY19L1, A0A1B0GW05: the log2 fold change was inactive: 0.006.

Consider EDEM1 (UniProt Q92611), for which the log2 fold change was inactive: -0.156.

With DPYSL2 (UniProt Q16555), the log2 fold change was inactive: 0.054.

Take DUS3L (UniProt Q96G46): the log2 fold change is inactive: -0.013.

Regarding DSCC1 (UniProt Q9BVC3), the log2 fold change is inactive: 0.02.

For the target EHBP1 isoform 2 (UniProt Q8NDI1), the log2 fold change is inactive: -0.001.

Consider EDARADD (UniProt Q8WWZ3), for which the log2 fold change was inactive: -0.03.

Consider EFHD1 (UniProt Q9BUP0), for which the log2 fold change is inactive: -0.179.

In the case of DTYMK (UniProt P23919), the log2 fold change was inactive: 0.004.

For the target DYNLL2 (UniProt Q96FJ2), the log2 fold change is inactive: -0.039.

As for DPH7 (UniProt Q9BTV6), the log2 fold change is inactive: -0.001.

With ECH1 (UniProt Q13011), the log2 fold change is inactive: 0.232.

Turning to DUSP23 (UniProt Q9BVJ7), the log2 fold change is inactive: -0.1.

In the case of DYNLRB1 (UniProt Q9NP97), the log2 fold change was inactive: 0.026.

Consider DPP9 isoform 2 (UniProt Q86TI2), for which the log2 fold change is inactive: -0.005.

For the target DPP7 (UniProt Q9UHL4), the log2 fold change was inactive: 0.043.

Turning to EEF1D isoform 2 (UniProt P29692), the log2 fold change was inactive: -0.022.

With EEF1B2 (UniProt P24534), the log2 fold change was inactive: -0.016.

On to DUT (UniProt P33316), for which the log2 fold change was inactive: 0.019.

Regarding EED, A0A5F9ZI63, the log2 fold change was inactive: 0.003.

Turning to DPH6 (UniProt Q7L8W6), the log2 fold change is inactive: -0.005.

Take ECT2 (UniProt Q9H8V3): the log2 fold change is inactive: -0.09.

Consider DUSP3 (UniProt P51452), for which the log2 fold change was inactive: -0.013.

Consider DYNC1H1 (UniProt Q14204), for which the log2 fold change is inactive: -0.007.

Consider EIF1AD (UniProt Q8N9N8), for which the log2 fold change is inactive: 0.043.

Consider ECI2 (UniProt O75521), for which the log2 fold change was inactive: -0.111.

Take EBNA1BP2 (UniProt Q99848): the log2 fold change is inactive: 0.025.
